From PubChem BioAssay AID1347076 (National Center for Advancing Translational Sciences (NCATS), 2019)
Among all 400,000 compounds or so, about 13,000 (3.2%) were called active. This list was built around the results that the source calls inconclusive (neither active nor inactive); the mix of calls is not that of the screen. Calls come from the whole dose curve; as a rule, active = well fitted cell-killing curve with a large enough effect; inconclusive = small, poorly fitted or top-dose-only effect, or effect the other way; inactive = flat fitted curve, though single readings scatter. Potencies beside an inconclusive call are fits to weak or partial responses and may not hold up.

Experiment: qHTS assay for MDR1-selective chemotherapeutics: Primary screen using the drug-selected MDR subline cells KB-V1; note: nearly all actives have a fitted effect of over 60% in size
Details: KB-V1 MDR cells viability, CellTiter-Glo, 72 h; activity change, negative = cytotoxicity: at 46.1 µM (top of the series)
How it was run: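 Compound-treated KB-V1 multidrug-resistant cells, 72 h, 37 degrees C; viability by CellTiter-Glo. Fitted qHTS curves give the values.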
% is set by controls: 0 for no effect and ±100 for the full control effect; potency is the fitted concentration of half-maximal effect.

Row | SMILES | Potency | activity change, negative = cytotoxicity
1 | N#CC1c2ccccc2C=CN1C(=O)N(c1ccccc1)c1ccccc1 (stereo unspecified) | active: 20.6 µM | 
2 | O=C(NCc1ccccc1Cl)[C@H]1CCCN1C(=O)[C@H]1CCCN1 |  | inconclusive: -17%
3 | Cc1cc(C(=O)Nc2ccncc2)c2ccccc2n1 | inconclusive: 29.1 µM [rising, single point] | 
4 | COc1ccc(/C=C/C(=O)c2ccc([N+](=O)[O-])o2)cc1 | inconclusive: 16.4 µM [cytotoxic, single point] | 
5 | Cc1ccc(C(=O)N2CCN(S(=O)(=O)c3ccccc3)CC2)cc1 | inconclusive: 29.1 µM [cytotoxic, partial curve, poor fit] | 
6 | COc1ccc(N(C)C(=O)C2CCN(S(=O)(=O)c3cccc4nonc34)CC2)cc1 | inconclusive: 14.6 µM [cytotoxic, partial curve] | 
7 | Cc1nc(C(F)(F)F)ccc1C(=O)NCC(O)c1ccccc1 (stereo unspecified) |  | inactive: 2.3%
8 | CS/C(=N\S(=O)(=O)c1cccs1)Nc1ccc(Cl)cc1 |  | inactive: -23.8%
9 | COc1ccc(NC(=O)C2CCN(Cc3cnn(-c4ccccc4)c3-n3cccc3)CC2)cc1OC | inconclusive: 6.51 µM [cytotoxic, partial curve, poor fit] | 
10 | COc1ccc(-c2nc(-c3ccc(O)cc3O)cs2)cc1OC | inconclusive: 23.1 µM [cytotoxic, single point] | 
11 | Cc1nc2cc(NC(=O)c3ccc(N4C(=O)CCC4=O)cc3)ccc2s1 | inconclusive: 20.6 µM [rising, single point] | 
12 | COc1ccccc1N1CCN(/N=C/c2cccc(Cl)c2)CC1 |  | inactive: -21.7%
13 | CCC(c1nnnn1-c1c(C)cccc1C)N1CCN(c2ccc(C(F)(F)F)cc2[N+](=O)[O-])CC1 (stereo unspecified) |  | inactive: 0%
14 | CCc1ccc2[nH]c(=O)c(CN(Cc3cccs3)Cc3nnnn3Cc3ccccc3)cc2c1 | inconclusive: 29.1 µM [cytotoxic, single point] | 
15 | CCCCN1C(=O)C(CC(=O)NC2CCCCC2)CC(C(=O)N(CC)CC)=C1C (stereo unspecified) | inconclusive: 23.1 µM [cytotoxic, single point] | 
16 | CC1(C(=O)O)CCCN(C(=O)c2ccc(OC(F)F)cc2)C1 (stereo unspecified) |  | inactive: 3.12%
17 | CCCCCn1c(N)c(-c2nc3ccccc3s2)c2c([N+](=O)[O-])nn(CC)c(=O)c21 | active: 18.4 µM | 
18 | Cc1nc(SCC(=O)N2CCN(C(=O)c3ccco3)CC2)c2c(C)c(C)sc2n1 | inconclusive: 20.6 µM [cytotoxic, single point] | 
19 | COCc1cc(C)nc(N2CCN(c3ccccc3)CC2)c1C#N | inconclusive: 20.6 µM [cytotoxic, partial curve] | 
20 | Nc1ccc(NC(=O)c2ccccc2)c2c1C(=O)c1ccccc1C2=O | inconclusive: 23.1 µM [cytotoxic, partial curve] | 
21 | COC(=O)CCCCC1SCC(NC(=O)c2ccccc2)C1=O (stereo unspecified) | inconclusive: 3.66 µM [rising, full curve] | 
22 | Cc1ccc(-n2c(=O)c3c4c(sc3n(CC(=O)c3ccc(Cl)cc3)c2=O)CCC4)cc1C | inconclusive: 29.1 µM [rising, single point] | 
23 | O=c1cc(NS(=O)(=O)c2ccccc2)nc(SCc2ccccc2Cl)[nH]1 | inconclusive: 18.4 µM [cytotoxic, single point] | 

Among those listed so far, 2 have a CF3 group:
Row | SMILES | Potency | activity change, negative = cytotoxicity
7 | Cc1nc(C(F)(F)F)ccc1C(=O)NCC(O)c1ccccc1 (stereo unspecified) |  | inactive: 2.3%
13 | CCC(c1nnnn1-c1c(C)cccc1C)N1CCN(c2ccc(C(F)(F)F)cc2[N+](=O)[O-])CC1 (stereo unspecified) |  | inactive: 0%

Going on with the list.

Row | SMILES | Potency | activity change, negative = cytotoxicity
24 | CN(C)c1ncnc2c1nnn2C1OC(CO)C(O)C1O (stereo unspecified) | active: 1.64 µM | 
25 | NC(=O)c1cccc(-c2ccnc3c2CC(C(=O)NCCC(F)(F)F)O3)c1 (stereo unspecified) |  | inactive: 5.67%
26 | CSCCC1NC(=O)N(CC(=O)Nc2c(C(C)C)cccc2C(C)C)C1=O (stereo unspecified) | inconclusive: 4.11 µM [rising, partial curve, poor fit] | 
27 | CCC(C)N(C(=O)Cn1cnc2c1c(=O)n(C)c(=O)n2C)C1CCS(=O)(=O)C1 (stereo unspecified) | inconclusive: 25.9 µM [rising, single point] | 
28 | COc1ccc(-c2nnn(CC(=O)N(C3CCCCC3)C(C)C(=O)NC3CCCC3)n2)cc1OC (stereo unspecified) | active: 2.59 µM | 
29 | N=C(N)SCC1=CCS(=O)(=O)C1 | inconclusive: 9.2 µM [rising, partial curve, poor fit] | 
30 | Cc1cc(C(=O)CSc2nc(N)cc(=O)[nH]2)c(C)n1-c1ccc(OC(F)F)cc1 | inconclusive: 7.31 µM [cytotoxic, partial curve] | 
31 | COC(=O)c1ccccc1OC(=O)c1cc[n+]([O-])cc1 |  | inactive: -1.68%
32 | COc1ccccc1OCC(=O)Nc1ccc2c(c1)n(C)c(=O)n2C | inconclusive: 29.1 µM [cytotoxic, single point] | 
33 | COCCNC(=O)c1ccc2c(c1)NC(=O)CS2 | inconclusive: 14.1 µM [rising, partial curve, poor fit] | 
34 | COc1ccc(OC)c(C(c2nnnn2C2CCCC2)N2CCc3ccccc3C2)c1 (stereo unspecified) | active: 16.4 µM | 
35 | CC(C)COc1ccc(C(=O)Nc2scc(-c3ccc(Cl)cc3Cl)c2C(N)=O)cc1 | active: 3.66 µM | 
36 | O=S(=O)(c1ccc2nc(SCc3ccc(Cl)cc3)[nH]c2c1)N1CCOCC1 |  | inactive: -0.534%
37 | CC(C)NC(=O)c1ccccc1NC(=O)Cc1ccc(Br)cc1 | inconclusive: 7.31 µM [cytotoxic, partial curve] | 
38 | COc1cc(OC)c(C(=O)OCC(=O)NC23CC4CC(CC(C4)C2)C3)cc1OC | active: 8.2 µM | 
39 | COc1cc2cc(C(=O)NC(C)c3cccc4ccccc34)c(N)nc2cc1OC (stereo unspecified) |  | inactive: -10.3%
40 | CC(OC(=O)CNC(=O)c1sc2ccccc2c1Cl)c1ccccc1 (stereo unspecified) |  | inactive: 21.2%
41 | CC(=O)c1c(N2CCN(Cc3ccccc3)CC2)nc(=S)n(Cc2ccccc2)c1C | active: 2.91 µM | 
42 | O=C(CSc1nnc(-c2cccc(Cl)c2)o1)N1CCc2ccccc21 | inconclusive: 8.2 µM [rising, partial curve] | 
43 | CCCCn1c(SCC(=O)NCc2ccc3c(c2)OCO3)nnc1C(CC)N(C)C (stereo unspecified) |  | inactive: -1.42%
44 | O=C(NCCCN1CCOCC1)C(c1ccccc1)c1ccccc1 |  | inactive: 0%
45 | CCOC(=O)c1ccc(N2C(=O)CC(SCC(=O)Nc3ccc(S(N)(=O)=O)cc3)C2=O)cc1 (stereo unspecified) | inconclusive: 20.6 µM [rising, single point] | 
46 | OC[C@@H]1CN(Cc2ccc(-c3ccccc3)cc2)C[C@H](n2cnc3c(NCc4ccc(F)cc4)ncnc32)O1 | inconclusive: 29.1 µM [cytotoxic, single point] | 
